Measurements as given in article PMC9814400 (Communications Chemistry, 2022).

Tested on: p97
Assay: BLI affinity from kinetic data compared with steady-state affinity
Type: binding
Conditions: construct not stated

SMILES | lower affinity deduced from kinetic data vs steady state
Cc1ccc(-c2csc3nc(CO)cn23)cc1 [TROLL14] | up to 3.5 times
Nc1[nH]ncc1-c1ccc(Cl)cc1 [TROLL18] | up to 3.5 times
